Source: patent US12331027B2, “Herbicidal pyridylethers” (BASF SE, priority 2017, dated 2025)
Some entries share one result that the patent states for a list of compounds.

Columns and labels:
Experiment in all cases: greenhouse post-emergence herbicidal test
Type in all cases: in vivo
Details in all cases: post-emergence method, application rate 16 g/ha, scale from 0 to 100
[1] = test system: CHEAL (Chenopodium album)
From the text: (§1) The seeds of the test plants were sown separately for each species. For the post-emergence treatment, the test plants were first grown to a height of 3 to 15 cm, depending on the plant habit, and only then treated with the active ingredients which had been suspended or emulsified in water. For this purpose, the test plants were either sown directly and grown in the same containers, or they were first grown separately as seedlings and transplanted into the test containers a few days prior to treatment. Depending on the species, the plants were kept at 10-25° C. or 20-35° C., respectively. The test period extended over 2 to 4 weeks. During this time, the plants were tended, and their response to the individual treatments was evaluated. Evaluation was carried out using a scale from 0 to 100. 100 means no emergence of the plants, or complete destruction of at least the aerial moieties, and 0 means no damage, or normal course of growth. A good herbicidal activity is given at values of at least 70 and a very good herbicidal activity is given at values of at least 85. [table]

[2] = test system: ECHCG (Echinocloa crus-galli)
From the text: as §1

SETVI (Setaria viridis) = test system: SETVI (Setaria viridis)
From the text: as §1

[3] = test system: AMARE (Amaranthus retroflexus)
From the text: as §1

[4] = test system: POLCO (Polygonum convolvulus)
From the text: as §1

SMILES	herbicidal activity against CHEAL [1]	herbicidal activity against ECHCG [2]	herbicidal activity against SETVI (SETVI (Setaria viridis))	herbicidal activity against AMARE [3]	herbicidal activity against POLCO [4]
CCOC(=O)COc1ncccc1Oc1nc(-n2nc(C)n(C(F)F)c2=O)c(F)cc1C#N [Example 17]	very good (a very good herbicidal activity is given at values of at least 85)	very good (a very good herbicidal activity is given at values of at least 85)	very good (a very good herbicidal activity is given at values of at least 85)	very good (a very good herbicidal activity is given at values of at least 85)	–
CCOC(=O)COc1ccccc1Oc1nc(-n2nc(C)n(C(F)F)c2=O)c(Cl)cc1Cl [Example 10]	very good (a very good herbicidal activity is given at values of at least 85)	very good (a very good herbicidal activity is given at values of at least 85)	very good (a very good herbicidal activity is given at values of at least 85)	very good (a very good herbicidal activity is given at values of at least 85)	–
CCOC(=O)COc1ncccc1Oc1nc(-n2nc(C)n(C(F)F)c2=O)c(F)cc1Cl [Example 13]	very good (a very good herbicidal activity is given at values of at least 85)	very good (a very good herbicidal activity is given at values of at least 85)	very good (a very good herbicidal activity is given at values of at least 85)	very good (a very good herbicidal activity is given at values of at least 85)	–
CCOC(=O)COc1ccccc1Oc1nc(-n2nc(C)n(C(F)F)c2=O)c(F)cc1C#N [Example 12]	very good (a very good herbicidal activity is given at values of at least 85)	very good (a very good herbicidal activity is given at values of at least 85)	very good (a very good herbicidal activity is given at values of at least 85)	very good (a very good herbicidal activity is given at values of at least 85)	–
CCOC(=O)COc1ncccc1Oc1nc(-c2nn(C)c(C(F)(F)F)cc2=O)c(F)cc1Cl [Example 25]	very good (a very good herbicidal activity is given at values of at least 85)	very good (a very good herbicidal activity is given at values of at least 85)	very good (a very good herbicidal activity is given at values of at least 85)	very good (a very good herbicidal activity is given at values of at least 85)	–
CCOC(=O)COc1ccccc1Oc1nc(-n2ncc(C(F)(F)F)c(C)c2=O)c(F)cc1Cl [Example 21]	very good (a very good herbicidal activity is given at values of at least 85)	–	very good (a very good herbicidal activity is given at values of at least 85)	very good (a very good herbicidal activity is given at values of at least 85)	very good (a very good herbicidal activity is given at values of at least 85)
CCOC(=O)COc1ncccc1Oc1nc(-n2c(=O)n(C)c(=S)n(C)c2=O)c(F)cc1Cl [Example 20]	very good (a very good herbicidal activity is given at values of at least 85)	very good (a very good herbicidal activity is given at values of at least 85)	very good (a very good herbicidal activity is given at values of at least 85)	very good (a very good herbicidal activity is given at values of at least 85)	–
CCOC(=O)COc1ncccc1Oc1nc(-n2ncc(C(F)(F)F)c(C)c2=O)c(F)cc1Cl [Example 8, Ethyl 2-[[3-[[3-chloro-5-fluoro-6-[5-methyl-6-oxo-4-(trifluoromethyl)pyridazin-1-yl]-2-pyridyl]oxy]-2-pyridyl]oxy]acetate]	very good (a very good herbicidal activity is given at values of at least 85)	very good (a very good herbicidal activity is given at values of at least 85)	very good (a very good herbicidal activity is given at values of at least 85)	–	–
CCOC(=O)COc1ccccc1Oc1nc(-c2nn(C)c(OC(F)F)c2Cl)c(F)cc1Cl [Example 6, Ethyl 2-[2-[[3-chloro-6-[4-chloro-5-(difluoromethoxy)-1-methyl-pyrazol-3-yl]-5-fluoro-2-pyridyl]oxy]phenoxy]acetate]	very good (a very good herbicidal activity is given at values of at least 85)	–	very good (a very good herbicidal activity is given at values of at least 85)	–	very good (a very good herbicidal activity is given at values of at least 85)
CCOC(=O)COc1ccccc1Oc1nc(-c2nn(C)c(C(F)(F)F)cc2=O)c(F)cc1Cl [Example 24]	very good (a very good herbicidal activity is given at values of at least 85)	very good (a very good herbicidal activity is given at values of at least 85)	very good (a very good herbicidal activity is given at values of at least 85)	very good (a very good herbicidal activity is given at values of at least 85)	–
CCOC(=O)COc1ccccc1Oc1nc(-n2nc(C)n(C(F)F)c2=O)c(F)cc1Cl [Example 1, Ethyl 2-[2-[[3-chloro-6-[4-(difluoromethyl)-3-methyl-5-oxo-1,2,4-triazol-1-yl]-5-fluoro-2-pyridyl]oxy]phenoxy]acetate]	very good (a very good herbicidal activity is given at values of at least 85)	very good (a very good herbicidal activity is given at values of at least 85)	very good (a very good herbicidal activity is given at values of at least 85)	–	–
CCOC(=O)COc1ccccc1Oc1nc(-n2c(=S)cc(C(F)(F)F)n(C)c2=O)c(F)cc1Cl [Example 22]	very good (a very good herbicidal activity is given at values of at least 85)	very good (a very good herbicidal activity is given at values of at least 85)	very good (a very good herbicidal activity is given at values of at least 85)	very good (a very good herbicidal activity is given at values of at least 85)	–
CCOC(=O)COc1ncccc1Oc1nc(-n2nc(C)n(C(F)F)c2=O)c(Cl)cc1Cl [Example 15]	very good (a very good herbicidal activity is given at values of at least 85)	very good (a very good herbicidal activity is given at values of at least 85)	very good (a very good herbicidal activity is given at values of at least 85)	very good (a very good herbicidal activity is given at values of at least 85)	–
